Paper PMC10950329
No constants are given. Whether binding was seen depends on the method and setting. In cells and extracts the contact can be indirect. Some results given as binding are weak or reduced against the parent protein; the word gives no strength.

Sequences of proteins named here, by UniProt entry; tags and fusion partners are left off.
UniProt O08808: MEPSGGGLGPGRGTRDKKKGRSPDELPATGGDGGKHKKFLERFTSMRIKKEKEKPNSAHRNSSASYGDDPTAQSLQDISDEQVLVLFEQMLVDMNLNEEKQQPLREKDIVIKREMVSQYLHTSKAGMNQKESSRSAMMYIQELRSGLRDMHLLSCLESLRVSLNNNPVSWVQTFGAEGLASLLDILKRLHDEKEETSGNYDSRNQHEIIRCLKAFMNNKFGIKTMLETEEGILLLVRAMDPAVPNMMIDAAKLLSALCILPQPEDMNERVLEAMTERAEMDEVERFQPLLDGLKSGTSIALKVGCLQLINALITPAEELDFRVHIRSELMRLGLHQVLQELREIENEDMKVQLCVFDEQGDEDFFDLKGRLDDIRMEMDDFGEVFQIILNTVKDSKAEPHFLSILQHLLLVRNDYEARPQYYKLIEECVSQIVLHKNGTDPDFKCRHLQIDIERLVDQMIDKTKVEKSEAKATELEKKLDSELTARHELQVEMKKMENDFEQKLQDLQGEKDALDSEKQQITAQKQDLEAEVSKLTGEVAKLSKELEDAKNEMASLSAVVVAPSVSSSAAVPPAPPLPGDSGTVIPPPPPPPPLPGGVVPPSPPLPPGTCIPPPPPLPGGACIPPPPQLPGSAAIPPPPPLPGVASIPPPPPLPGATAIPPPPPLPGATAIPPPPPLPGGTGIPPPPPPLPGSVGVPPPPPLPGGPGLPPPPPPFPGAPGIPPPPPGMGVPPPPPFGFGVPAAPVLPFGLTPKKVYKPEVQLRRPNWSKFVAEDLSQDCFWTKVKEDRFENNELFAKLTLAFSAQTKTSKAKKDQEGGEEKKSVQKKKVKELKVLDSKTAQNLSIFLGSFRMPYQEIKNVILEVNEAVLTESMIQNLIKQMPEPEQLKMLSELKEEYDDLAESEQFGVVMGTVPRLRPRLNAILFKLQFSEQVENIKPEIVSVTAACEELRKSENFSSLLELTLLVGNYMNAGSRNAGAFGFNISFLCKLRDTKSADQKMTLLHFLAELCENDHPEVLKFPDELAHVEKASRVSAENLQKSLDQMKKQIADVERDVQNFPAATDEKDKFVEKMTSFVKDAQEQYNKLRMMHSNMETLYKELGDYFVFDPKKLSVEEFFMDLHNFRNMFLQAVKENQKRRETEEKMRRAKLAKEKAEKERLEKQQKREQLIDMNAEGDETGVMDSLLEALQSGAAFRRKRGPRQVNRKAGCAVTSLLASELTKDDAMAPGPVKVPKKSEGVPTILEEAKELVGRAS
UniProt Q61879: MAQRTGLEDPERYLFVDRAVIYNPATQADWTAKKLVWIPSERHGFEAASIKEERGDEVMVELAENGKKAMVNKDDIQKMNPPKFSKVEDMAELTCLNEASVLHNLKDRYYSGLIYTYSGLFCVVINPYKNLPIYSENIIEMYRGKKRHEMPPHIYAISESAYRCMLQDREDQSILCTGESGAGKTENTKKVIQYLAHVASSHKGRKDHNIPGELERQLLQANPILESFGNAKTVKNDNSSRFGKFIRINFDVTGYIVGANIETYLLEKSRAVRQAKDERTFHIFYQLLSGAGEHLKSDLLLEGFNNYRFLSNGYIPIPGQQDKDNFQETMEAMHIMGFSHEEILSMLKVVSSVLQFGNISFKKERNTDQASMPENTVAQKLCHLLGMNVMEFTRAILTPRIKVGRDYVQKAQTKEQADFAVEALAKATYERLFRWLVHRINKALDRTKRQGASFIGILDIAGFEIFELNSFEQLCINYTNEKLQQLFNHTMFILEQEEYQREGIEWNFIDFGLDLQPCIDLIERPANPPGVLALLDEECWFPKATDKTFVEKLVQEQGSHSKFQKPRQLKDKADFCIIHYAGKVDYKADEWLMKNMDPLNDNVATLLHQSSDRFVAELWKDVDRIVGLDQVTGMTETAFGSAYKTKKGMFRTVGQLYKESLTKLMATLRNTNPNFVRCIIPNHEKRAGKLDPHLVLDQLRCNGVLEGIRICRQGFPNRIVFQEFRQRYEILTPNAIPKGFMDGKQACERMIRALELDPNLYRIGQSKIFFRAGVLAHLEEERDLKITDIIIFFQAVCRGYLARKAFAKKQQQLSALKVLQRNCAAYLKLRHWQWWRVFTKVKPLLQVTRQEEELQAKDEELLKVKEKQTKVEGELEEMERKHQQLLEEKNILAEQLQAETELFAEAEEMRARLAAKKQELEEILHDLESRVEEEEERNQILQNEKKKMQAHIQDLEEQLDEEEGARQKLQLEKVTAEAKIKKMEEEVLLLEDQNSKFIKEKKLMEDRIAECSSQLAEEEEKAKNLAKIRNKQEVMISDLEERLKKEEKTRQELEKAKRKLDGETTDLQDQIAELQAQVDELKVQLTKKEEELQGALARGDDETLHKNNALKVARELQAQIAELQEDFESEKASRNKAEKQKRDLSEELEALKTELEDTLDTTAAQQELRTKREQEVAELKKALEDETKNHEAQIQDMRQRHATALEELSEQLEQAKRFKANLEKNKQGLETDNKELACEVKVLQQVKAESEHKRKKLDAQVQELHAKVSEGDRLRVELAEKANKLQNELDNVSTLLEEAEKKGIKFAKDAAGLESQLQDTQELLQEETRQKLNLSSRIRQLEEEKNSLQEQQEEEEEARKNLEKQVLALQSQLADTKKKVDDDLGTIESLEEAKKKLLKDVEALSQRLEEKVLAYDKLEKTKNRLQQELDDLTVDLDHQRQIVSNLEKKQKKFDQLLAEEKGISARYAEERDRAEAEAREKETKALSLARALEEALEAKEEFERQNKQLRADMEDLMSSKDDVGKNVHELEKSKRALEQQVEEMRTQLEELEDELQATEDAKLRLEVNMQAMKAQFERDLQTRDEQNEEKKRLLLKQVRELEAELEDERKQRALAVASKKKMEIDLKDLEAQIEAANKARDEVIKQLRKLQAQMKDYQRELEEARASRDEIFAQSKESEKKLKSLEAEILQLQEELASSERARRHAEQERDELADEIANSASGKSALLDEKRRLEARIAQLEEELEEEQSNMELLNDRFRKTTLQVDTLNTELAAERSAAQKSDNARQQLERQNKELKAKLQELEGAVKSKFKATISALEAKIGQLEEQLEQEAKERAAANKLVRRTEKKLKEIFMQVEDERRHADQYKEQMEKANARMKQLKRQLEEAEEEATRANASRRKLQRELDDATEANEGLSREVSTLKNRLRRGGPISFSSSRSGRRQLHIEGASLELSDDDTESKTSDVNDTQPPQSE

Biological target: mDia1 (mouse (endogenous in brain synaptosomes)) (UniProt O08808)
Assay: co-IP; endogenous mDia1 precipitated with anti-mDia1 antibody (control: mouse IgG) from detergent-extracted (1% CHAPS, 20 mM HEPES, 130 mM NaCl, 2 mM MgCl2, pH 7.4) mouse synaptosomes (P2' fraction), Protein A/G magnetic beads, 4 °C; immunoblotting

| Molecule | binding |
| --- | --- |
| Myosin IIB (from UniProt Q61879 1-1976) | binds |
| Dynamin1 (protein, UniProt P39053 1-867) MGNRGMEDLIPLVNRLQDAFSAIGQNADLDLPQIAVVGGQSAGKSSVLENFVGRDFLPRGSGIVTRRPLVLQLVNSTTEYAEFLHCKGKKFTDFEEVRLEIEAETDRVTGTNKGISPVPINLRVYSPHVLNLTLVDLPGMTKVPVGDQPPDIEFQIRDMLMQFVTKENCLILAVSPANSDLANSDALKIAKEVDPQGQRTIGVITKLDLMDEGTDARDVLENKLLPLRRGYIGVVNRSQKDIDGKKDITAALAAERKFFLSHPSYRHLADRMGTPYLQKVLNQQLTNHIRDTLPGLRNKLQSQLLSIEKEVDEYKNFRPDDPARKTKALLQMVQQFAVDFEKRIEGSGDQIDTYELSGGARINRIFHERFPFELVKMEFDEKELRREISYAIKNIHGIRTGLFTPDMAFETIVKKQVKKIREPCLKCVDMVISELISTVRQCTKKLQQYPRLREEMERIVTTHIREREGRTKEQVMLLIDIELAYMNTNHEDFIGFANAQQRSNQMNKKKTSGNQDEILVIRKGWLTINNIGIMKGGSKEYWFVLTAENLSWYKDDEEKEKKYMLSVDNLKLRDVEKGFMSSKHIFALFNTEQRNVYKDYRQLELACETQEEVDSWKASFLRAGVYPERVGDKEKASETEENGSDSFMHSMDPQLERQVETIRNLVDSYMAIVNKTVRDLMPKTIMHLMINNTKEFIFSELLANLYSCGDQNTLMEESAEQAQRRDEMLRMYHALKEALSIIGDINTTTVSTPMPPPVDDSWLQVQSVPAGRRSPTSSPTPQRRAPAVPPARPGSRGPAPGPPPAGSALGGAPPVPSRPGASPDPFGPPPQVPSRPNRAPPGVPSLGAWRLNSPQGKHENRAGKARL | binds |
